This passage reports binding results from PMC3470869.

Protein sequences, listed by entry. Tags and fused reporters are not part of them.
UniProt P32121: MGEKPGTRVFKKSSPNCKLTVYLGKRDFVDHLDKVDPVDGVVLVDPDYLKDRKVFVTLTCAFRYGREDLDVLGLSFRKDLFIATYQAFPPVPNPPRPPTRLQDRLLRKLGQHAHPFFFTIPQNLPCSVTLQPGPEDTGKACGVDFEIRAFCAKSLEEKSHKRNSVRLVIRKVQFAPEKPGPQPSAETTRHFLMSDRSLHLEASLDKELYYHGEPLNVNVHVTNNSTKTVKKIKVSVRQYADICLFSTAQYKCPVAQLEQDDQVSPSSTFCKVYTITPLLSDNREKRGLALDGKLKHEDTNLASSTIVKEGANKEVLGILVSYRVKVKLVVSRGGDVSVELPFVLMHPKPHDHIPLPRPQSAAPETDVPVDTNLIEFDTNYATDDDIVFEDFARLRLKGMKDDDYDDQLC
UniProt Q9HAU4: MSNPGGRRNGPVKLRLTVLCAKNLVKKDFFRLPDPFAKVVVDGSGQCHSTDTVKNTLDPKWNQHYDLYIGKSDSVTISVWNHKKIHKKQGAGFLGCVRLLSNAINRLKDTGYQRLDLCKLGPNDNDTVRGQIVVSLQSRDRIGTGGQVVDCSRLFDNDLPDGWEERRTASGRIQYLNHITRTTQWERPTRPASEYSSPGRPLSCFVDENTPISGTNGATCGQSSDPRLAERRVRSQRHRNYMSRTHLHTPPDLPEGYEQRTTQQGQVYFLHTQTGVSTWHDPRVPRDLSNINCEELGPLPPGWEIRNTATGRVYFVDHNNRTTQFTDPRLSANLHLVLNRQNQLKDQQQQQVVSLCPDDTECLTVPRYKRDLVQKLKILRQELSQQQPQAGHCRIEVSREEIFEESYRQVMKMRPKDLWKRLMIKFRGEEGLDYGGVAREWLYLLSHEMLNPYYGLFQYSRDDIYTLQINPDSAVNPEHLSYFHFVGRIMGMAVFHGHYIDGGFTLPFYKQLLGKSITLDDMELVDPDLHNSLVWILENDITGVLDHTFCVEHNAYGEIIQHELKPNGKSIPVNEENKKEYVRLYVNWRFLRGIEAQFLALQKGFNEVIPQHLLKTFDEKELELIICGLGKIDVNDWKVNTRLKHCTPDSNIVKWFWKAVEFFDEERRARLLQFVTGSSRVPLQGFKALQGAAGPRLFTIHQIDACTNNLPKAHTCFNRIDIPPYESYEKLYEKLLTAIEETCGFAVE

In this experiment the target is HA-Arrestin3 (UniProt P32121). The experiment in a line: co-IP; cells transiently transfected with myc-Smurf2 and HA-Arrestin3 (or pCDNA 3.0), lysed in IP buffer with protease inhibitors; legend: immunoprecipitated with HA antibody, immunoblotted for myc (methods: anti-myc 9E10 overnight, protein A/G beads, probed with anti-HA). Background: In western blotting, separated proteins are transferred to a membrane and probed.

No constants are given. Whether binding was seen depends on the method and setting. In cells and extracts the contact can be indirect. Some entries that bind do so weakly or less than the wild type.

Take “myc-Smurf2 (from UniProt Q9HAU4 1-748) (enzyme)”: the binding entry was “binds”.
